This is an account of results in paper PMC11134331, “Cell-active small molecule inhibitors validate the SNM1A DNA repair nuclease as a cancer target” (Chemical Science, 2024).

The target in the experiment is T1, SNM1A (Homo sapiens, UniProt Q6PJP8).
T1 sequence (Q6PJP8 676-1040): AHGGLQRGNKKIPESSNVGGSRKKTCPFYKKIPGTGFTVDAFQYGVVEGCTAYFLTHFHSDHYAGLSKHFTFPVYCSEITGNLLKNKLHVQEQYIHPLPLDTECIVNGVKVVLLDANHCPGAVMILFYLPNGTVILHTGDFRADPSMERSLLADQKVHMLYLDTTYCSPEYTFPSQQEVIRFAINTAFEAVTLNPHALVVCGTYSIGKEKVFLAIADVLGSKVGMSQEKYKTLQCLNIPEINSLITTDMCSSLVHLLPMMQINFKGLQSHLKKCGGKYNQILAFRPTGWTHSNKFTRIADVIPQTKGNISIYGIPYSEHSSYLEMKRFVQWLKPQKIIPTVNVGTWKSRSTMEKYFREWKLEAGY
Particulars: read-out: IC50 of positive control in ELF screen; SNM1A 0.1 nM; as printed in main text. How it is done: In brief, the fluorescence-based nuclease assay utilises a chemically modified 20-nucleotide ssDNA substrate with a fluorescein isothiocyanate (FITC) derived 5′-group and an internal black-hole-quencher-1 (BHQ-1), located eight nucleotides distal to the fluorescein group. In the intact substrate the BHQ-1 suppresses fluorescence, however, exonucleolytic digestion of the substrate from the 5′ end by SNM1A uncouples the BHQ-1 and FITC moieties (see Fig. 1D). Spectra were measured every 140 seconds with an increase in fluorescence indicating enzymatic activity by SNM1A (concentration: 0.1 nM).

Molecules are shown by their SMILES.

Take `CC(=O)OCC1=C(C(=O)O)N2C(=O)[C@@H](N)[C@H]2SC1` [7-ACA, 7-Aminocephalosporanic acid, reference compound]: the IC50 worked out at 12.2 µM.
